# Earlier results in patent publication US20260174674A1, “INCOMPLETE AUTOPHAGY INDUCTION FOR THE TREATMENT OF CANCER” (Northwestern University, priority 2022, published 2026).
# At least one structure is not confirmed: it was looked up by name or label, or the drawing left a doubt.
# System: α-synuclein
# Details: cited from earlier work
smiles,measurement,value
CO[C@H]1C[C@@H]2CC[C@@H](C)[C@@](O)(O2)C(=O)C(=O)N2CCCC[C@H]2C(=O)O[C@H]([C@H](C)C[C@@H]2CC[C@@H](O)[C@H](OC)C2)CC(=O)[C@H](C)/C=C(\C)[C@@H](O)[C@@H](OC)C(=O)[C@H](C)C[C@H](C)/C=C/C=C/C=C/1C [rapamycin],reduction of α-synuclein in cells,effective in reducing α-synuclein in cells
